Data: PubChem BioAssay AID445 (National Center for Advancing Translational Sciences (NCATS), 2006)
The list shows a part of the results. Shown are side measurements of this screen, not its main read-out; they come without a call. Compounds called inactive in the main read-out are mostly missing here. Words in brackets tell the shape of the fitted curve; partial curves, single points and poor fits give uncertain potencies.

assay: IkB Signaling; details: ABC-DLBCL IkBa-CBG/CBR dual luciferase ratio (green luciferase fused to IkBa over red control in OCI-Ly3 lymphoma cells), 4 h; measured here: control luc red channel unless noted
Procedure, shortened: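 Luminescence ratio of IκBα-fused green versus native red beetle luciferase in OCI-Ly3 cells, 4 h post-doxycycline with compound; red signal alone, scaled from basal (0%) to zero light (-100%), flagged nonspecific or cytotoxic effects.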

Row | Structure (SMILES) | AC50
1 | O=C(c1ccc(-c2ccccc2)cc1)N1CCN(Cc2ccccn2)CC1 | 25.1 µM [falling, partial curve]
2 | CCc1cccc(CC)c1NC(=O)Cn1nnc2sc(-c3ccccc3)cc2c1=O | 25.1 µM [falling, single point]
3 | Cc1ccc(-c2nc3ccc(Cl)cn3c2Nc2ccc3c(c2)OCCO3)o1 | 0.794 µM [falling, full curve, poor fit]
4 | CCN(CC)c1ccc(-c2nn3c(-c4n[nH]c5c4CCC5)nnc3s2)cc1 | 39.8 µM [falling, single point]
5 | O=C(CSc1nnc(Cc2cccs2)n1C1CCCCC1)N1CCN(C(=O)c2ccco2)CC1 | 10 µM [falling, partial curve]
6 | Oc1cc2c(cc1O)CN(C(=S)NCCc1ccc(Cl)cc1)CCC2 | 39.8 µM [falling, partial curve]
7 | CCCCCn1c(=O)[nH]c2cc(C(=O)N3CCN(c4ccccc4)CC3)ccc2c1=O | 5.01 µM [falling, full curve, poor fit]
8 | Cc1cc(N2CCN(C)CC2)nc2ccc(NC(=O)Nc3ccccc3Cl)cc12 | 39.8 µM [falling, single point]
9 | CCN(c1ncnc2c1c(-c1ccccc1)cn2-c1ccccc1)C1CCCCC1 | 7.94 µM [falling, partial curve]
10 | Cc1cccc(N2CCN(C(=O)c3cn(C)c(=O)c4c3c3ccccc3n4C)CC2)c1C | 31.6 µM [falling, partial curve]
11 | CCNc1c(NC(=O)c2ccccc2OCC)c(=O)oc2ccccc12 | 12.6 µM [falling, partial curve]
12 | CCOC(=O)C1=C(CNCc2ccccc2)NC(=O)NC1c1ccc(C)cc1 (stereo unspecified) | 15.8 µM [falling, partial curve]
13 | Cc1ccc(N2C(=O)[C@@H]3CSC(c4ccc(C(F)(F)F)cc4)N3C2=O)cc1 (stereo partly specified) | 1.26 µM [rising, full curve]
14 | COc1ccc(-n2c(=O)c3c(C)c(C)sc3n(Cc3ccc(F)cc3)c2=O)c(OC)c1 | 25.1 µM [falling, single point]
15 | Cc1ccc(S(=O)(=O)N2CCCc3cc(NC(=O)c4ccc(C(F)(F)F)cc4)ccc32)cc1 | 20 µM [falling, single point]
16 | COc1ccc(-c2noc(CSc3nnc(-c4ccncc4)n3-c3cccc(C)c3)n2)cc1OC | 39.8 µM [falling, single point]
17 | O=C(c1cc2ccccc2o1)c1nc2c(n1O)CCCCC2 | 1 µM [falling, full curve]
18 | COc1ccc(CCC(=O)NCCc2csc(-c3cccc(F)c3)n2)cc1 | 31.6 µM [falling, partial curve]
19 | COc1ccc(NC(=O)c2oc3ccc4c(c3c2C)C(=O)CC(C)(C)O4)cc1OC | 31.6 µM [falling, single point]
20 | CCc1ccc(OCC2c3cc(OC)c(OC)cc3CCN2C(=O)Cc2ccc(OC)c(OC)c2)cc1 (stereo unspecified) | 31.6 µM [falling, single point]
21 | COc1cc2c(cc1NC(=O)C(C)Oc1ccc(Cl)cc1Cl)oc1ccccc12 (stereo unspecified) | 0.0398 µM [falling, full curve, poor fit]

Row | Structure (SMILES) | AC50
22 | Cc1ccc(CCNC(=O)CCCn2nc(C)c3c(C)n(-c4ccc(C)cc4)nc3c2=O)cc1 | 12.6 µM [falling, partial curve]
23 | COc1ccc(CNC(=O)C2CCCN(S(=O)(=O)c3cc(C)ccc3OC)C2)cc1 (stereo unspecified) | 12.6 µM [falling, partial curve]
24 | O=C(NCCc1ccc(Cl)cc1)c1ccc2c(c1)N(Cc1ccc(F)cc1Cl)C(=O)CS2 | 15.8 µM [falling, partial curve]
25 | COc1ccc(-c2[nH]c(-c3ccccc3)nc2SCC(=O)Nc2ccc3c(c2)OCO3)cc1 | 15.8 µM [falling, partial curve]
26 | O=C(CN1C(=O)NC2(CCCCCCC2)C1=O)N1CCOCC1 | 3.98 µM [rising, partial curve]
27 | O=C(Nc1ccc(F)cc1)c1cccc(N2CCCS2(=O)=O)c1 | 39.8 µM [falling, partial curve, poor fit]
28 | CCOc1ccccc1NC(=O)C1CCN(S(=O)(=O)Cc2ccccc2)CC1 | 39.8 µM [falling, single point]
29 | Cc1cc(O)c(C(c2ccccc2Cl)N2CCCCC2)c(=O)n1Cc1ccco1 (stereo unspecified) | 6.31 µM [falling, partial curve, poor fit]
30 | Cc1ccc(NC(=O)c2ccc3c(=O)n4nc(Nc5ccccc5C)sc4nc3c2)cc1C | 39.8 µM [falling, single point]
31 | CCc1ccc(C2N3CC4(C)CN2CC(c2ccccc2)(C3)C4=O)cc1 (stereo unspecified) | 15.8 µM [falling, partial curve]
32 | Cc1c2cnn(CC(=O)N3CCCCC3)c(=O)c2c(C)n1Cc1ccc(Cl)cc1 | 10 µM [falling, partial curve]
33 | CCn1cc(C(=O)NCc2ccccc2)c(=O)c2cc(S(=O)(=O)N3CCOCC3)ccc21 | 39.8 µM [falling, single point]
34 | Cc1cccc(N2CCN(C(=O)c3c4c(nc5ccccc35)C(=O)N(C3CCCCC3)C4)CC2)c1C | 39.8 µM [falling, single point]
35 | Cc1ccc(N(C)C(=O)c2noc3c2CCCCC3)cc1C | 39.8 µM [falling, single point]
36 | COc1cc(OC)c(NC(=O)C(C)n2nc(-c3ccc(C)c(C)c3)ccc2=O)cc1Cl (stereo unspecified) | 31.6 µM [falling, partial curve]
37 | COc1cccc(NC(=O)CSc2nnc(NC(=O)NC3CCCCC3)s2)c1 | 25.1 µM [falling, single point]
38 | Cc1cc(C)c(C#N)c(SCC(=O)c2cccs2)n1 | 1.58 µM [falling, partial curve]
39 | Cc1ccc(-n2nc(C)c(C(=O)NCCCN3CCN(c4ccccc4F)CC3)c2-n2cccc2)cc1 | 10 µM [falling, partial curve]
40 | CCOC(=O)c1cnc2c(C)cc(C)cc2c1Nc1ccc(N2CCOCC2)cc1 | 12.6 µM [falling, partial curve]
41 | Cc1oc(-c2ccc(Cl)cc2)nc1CN1CCCC(C(=O)NCc2ccc(Cl)cc2)C1 (stereo unspecified) | 15.8 µM [falling, partial curve]
42 | CCCOc1ccccc1C(=O)Nc1nc2c(s1)CCCC2 | 25.1 µM [falling, partial curve]

Row | Structure (SMILES) | AC50
43 | CN(Cc1ccccc1)C(=O)c1ccc2c(c1)N(Cc1ccc(Cl)cc1)C(=O)c1ccccc1S2=O (stereo unspecified) | 12.6 µM [falling, partial curve]
44 | CCc1ccccc1N1CC(c2nc3ccccc3n2CCC2CCCCC2)CC1=O (stereo unspecified) | 15.8 µM [falling, partial curve]
45 | Cc1nnc(N2CCC(C(=O)NCc3cccc(Cl)c3)CC2)c2nn(-c3ccccc3)c(C)c12 | 39.8 µM [rising, single point] [measured here: IkB-luc green channel]
46 | Cn1c(=O)c2c(c3ccccc31)OC(=O)CC2c1ccccc1 (stereo unspecified) | 2 µM [rising, full curve] [measured here: IkB-luc green channel]
47 | CC(C)c1ccc(NC(=O)CSC2=Nc3ccccc3C3=NC(CC(=O)NCc4ccco4)C(=O)N23)cc1 (stereo unspecified) | 15.8 µM [falling, partial curve]
48 | c1ccc(-c2noc(-c3ccc4ccccc4c3)n2)cc1 | 0.01 µM [falling, full curve]
49 | Nc1c(C(=O)NCc2ccco2)nnn1-c1ccccc1 | 15.8 µM [falling, single point]
50 | Cc1ccc(CCNC(=O)c2ccc(CNS(=O)(=O)c3ccc(F)cc3)cc2)cc1 | 12.6 µM [falling, single point]
51 | CCOC(=O)C1=C(CS(=O)(=O)c2ccc(F)c(C)c2)NC(=O)NC1c1ccc(F)c(F)c1 (stereo unspecified) | 12.6 µM [falling, partial curve]
52 | CC(=O)N1CCc2c(sc(NC(=O)CSc3ccc(C)cc3)c2-c2nc3ccccc3s2)C1 | 6.31 µM [rising, single point]
53 | Cc1cccc(N2CCN(C(=O)c3cccc(-n4c(C)nc5cccnc54)c3)CC2C)c1 (stereo unspecified) | 15.8 µM [falling, partial curve]
54 | COC(=O)C1=C(C)NC2=C(C(=O)c3ccccc32)C1c1ccc(-c2ccc(C(=O)O)cc2)o1 (stereo unspecified) | 3.16 µM [falling, full curve]
55 | Cc1cccc(N2C(=O)SC(N(CC(=O)O)c3cccc(C)c3)C2=O)c1 (stereo unspecified) | 1.26 µM [falling, full curve]
56 | COc1ccc(NS(=O)(=O)c2cc3c4c(c2)CC(=O)N4CCC3)cc1Cl | 3.16 µM [rising, partial curve]
57 | CCn1c(CN2CCC(C)CC2)nc2cc(NC(=O)c3cccc([N+](=O)[O-])c3)ccc21 | 0.0398 µM [falling, full curve, poor fit]
58 | Cc1ccc(NC(=O)N2CCc3c([nH]c4ccccc34)C2c2ccccc2F)c(Cl)c1 (stereo unspecified) | 3.98 µM [falling, full curve, poor fit]
59 | COCCN1C(=O)c2oc3ccc(C)cc3c(=O)c2C1c1ccc(C(=O)OC)cc1 (stereo unspecified) | 6.31 µM [rising, single point]
60 | Cc1ccc(C)c(NS(=O)(=O)c2ccc3c(c2)CCCN3C(=O)C2CCC2)c1 | 25.1 µM [falling, single point]
61 | Cc1nc2c(cc(Oc3ccc(S(=O)(=O)N4CCOCC4)cn3)c3ccsc32)s1 | 31.6 µM [falling, single point]

Structural class, those above containing an NH in an aromatic ring (four)
Row | Structure (SMILES) | AC50
4 | CCN(CC)c1ccc(-c2nn3c(-c4n[nH]c5c4CCC5)nnc3s2)cc1 | 39.8 µM [falling, single point]
7 | CCCCCn1c(=O)[nH]c2cc(C(=O)N3CCN(c4ccccc4)CC3)ccc2c1=O | 5.01 µM [falling, full curve, poor fit]
25 | COc1ccc(-c2[nH]c(-c3ccccc3)nc2SCC(=O)Nc2ccc3c(c2)OCO3)cc1 | 15.8 µM [falling, partial curve]
58 | Cc1ccc(NC(=O)N2CCc3c([nH]c4ccccc34)C2c2ccccc2F)c(Cl)c1 (stereo unspecified) | 3.98 µM [falling, full curve, poor fit]
